Record: PubChem BioAssay AID1259424 (University of Nebraska Medical Center, 2018)
In all, the deposit lists about 14,000 reagents; this is a random part of them. 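Higher correlation or smaller distance means closer resemblance to KSR1 loss; control wells, including KSR1 knockdowns, recur on many plates.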 Not all columns of the deposit are shown. Not given: the time to read-out.

Aim: 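Seek colon cancer survival genes behaving like KSR1, using a six-gene signature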 (primary screen)
Cells: human HCT116 colon cancer cells
Reagents: siRNA pool against human genes, 50 nM
Measured: 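Log2 levels of six mRNAs (branched-DNA multiplex), adjusted by two reference genes and the non-targeting median, then scored against the average KSR1 knockdown pattern as Pearson r and euclidean distance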
Reading the numbers: mean correlation with KSR1 profile: higher = expression change more like KSR1 knockdown

mean correlation with KSR1 profile, by target gene and reagent
HLA-DMA (major histocompatibility complex, class II, DM alpha): SID363996961 0.784
ACTL7B (actin like 7B): SID363997469 0.0202
TRIM34 (tripartite motif containing 34): SID364002144 -0.617
MPP2 (MAGUK p55 scaffold protein 2): SID363996284 -0.1
TTC17 (tetratricopeptide repeat domain 17): SID364000920 -0.515
COL10A1 (collagen type X alpha 1 chain): SID363991816 0.208
SSTR1 (somatostatin receptor 1): SID363992346 0.498
SKIC3 (SKI3 subunit of superkiller complex): SID363999003 -0.197
TCF7L1 (transcription factor 7 like 1): SID364003572 0.117
PGF (placental growth factor): SID363993800 -0.38
GNG10 (G protein subunit gamma 10): SID363995135 0.189
ECE1 (endothelin converting enzyme 1): SID363992666 -0.333
POFUT2 (protein O-fucosyltransferase 2): SID363999370 -0.185
AHRR (aryl hydrocarbon receptor repressor): SID364001798 -0.0406
SPATA3 (spermatogenesis associated 3): SID364004595 0.366
ERLIN2 (ER lipid raft associated 2): SID363997875 0.14
SLITRK6 (SLIT and NTRK like family member 6): SID364003840 0.564
GPR84 (G protein-coupled receptor 84): SID364001638 0.397
RSPRY1 (ring finger and SPRY domain containing 1): SID364004530 0.0533
GTF3A (general transcription factor IIIA): SID363993304 0.582
PCDH10 (protocadherin 10): SID364001847 0.129
BPESC1 (blepharophimosis, epicanthus inversus and ptosis candidate 1): SID364002193 -0.386
PHIP (PHIP subunit of CUL4-Ring ligase complex): SID364000657 -0.365
WDR47 (WD repeat domain 47): SID363999232 -0.503
CTNNAL1 (catenin alpha like 1): SID363994861 -0.427
PSMC1 (proteasome 26S subunit, ATPase 1): SID363993959 -0.532
CYP2F1 (cytochrome P450 family 2 subfamily F member 1): SID363992065 0.259
FGFR4 (fibroblast growth factor receptor 4): SID363993222 -0.115
MRPL22 (mitochondrial ribosomal protein L22): SID363998637 0.285
FBXL8 (F-box and leucine rich repeat protein 8): SID364001021 -0.187
ZNF462 (zinc finger protein 462): SID364002108 0.547
SCRT1 (scratch family transcriptional repressor 1): SID364003596 0.412; SID364003868 0.897
TTC4 (tetratricopeptide repeat domain 4): SID363995591 -0.248

Looked up above:
Result of TCF7L1 (transcription factor 7 like 1) [SID364003572] under “mean correlation with KSR1 profile”: 0.117
Value for PHIP (PHIP subunit of CUL4-Ring ligase complex) [SID364000657] under “mean correlation with KSR1 profile”: -0.365
